Inconclusive means that the source gave no clear call. Such entries were picked first, then a sample of the others. Potencies beside an inconclusive call are fits to weak or partial responses and may not hold up. Calls of active or inactive are those of the source. How the source made its calls: active means hit-call score of the fitted dose curve at least 0.9, where 1 is the maximum; inconclusive means response in the unintended direction; inactive means score below 0.9.
The compounds below were run on SRY-box transcription factor 17 (SOX17) Protein Expression, SOX17 (gene 64321) (assay: CCTE_Deisenroth_DEVTOX-GLR_Ecto_SOX17: CCTE's DevTox GLR-Ecto Assay Evaluation of SRY-box transcription factor 17 (SOX17) Protein Expression, Deisenroth Lab).
Protocol: CCTE_Deisenroth_DEVTOX-GLR_Ecto assay is a cell-based, multiplex-readout assay that uses RUES2-GLR, a human pluripotent cell line, with measurements taken at 48 hours after chemical dosing in a 384-well microplateCCTE_Deisenroth_DEVTOX-GLR_Ecto_SOX17 is 1 of 4 assay components calculated from the CCTE_Deisenroth_DEVTOX-GLR_Ecto assay and it measures an the percentage of cells in an endoderm state. Using a type of inducible fluorescent protein reporter, gain-of-signal activity can be used to understand changes in gene expression with fluorescent microscopy. The percentage of SOX17+ cells are determined by calculating the number of SOX17+ cells divided by the cell count. To generalize the intended target to other relatable targets, this assay component is annotated to the transcription factor intended target family, where the subfamily is SRY-related HMG-box.Data from the assay component CCTE_Deisenroth_DEVTOX-GLR_Ecto_SOX17 was analyzed as 1 assay endpoint. The endpoint is the percent SOX17+ cell population minus the 0.2% DMSO control in the CCTE_Deisenroth_DEVTOX-GLR_Ecto assay. This assay endpoint can be referred to as a secondary readout since this assay has produced multiple assay endpoints where this one serves as a measure of endoderm differentiation.
All assay protocols are aligned to the DevTox GLR-Endo assay workflow. Cells are seeded into 384-well microplates for 24 hours prior to initiating differentiation in defined media for a total duration of 48 hours. A total of two chemical exposures are administered in 24-hour intervals during the 48-hour differentiation period. At the assay termination point, cells are fixed and stained with a fluorescent dye demarcating the nucleus. High-content imaging is used to acquire brightfield and fluorescent channel images across 5 fields per well. Cell identification and mean biomarker fluorescence intensities are calculated with image analysis software to determine the total cell counts for viability assessment and the biomarker expression frequency for each lineage-dependent assay. A typical experimental design tests a 10-point concentration series (1 nM - 200 uM) for 28 compounds in single technical replicate. Assay plate controls include non-differentiated pluripotent cells (baseline control), lineage-specific differentiated cells (differentiation control), and DMSO solvent exposed differentiated cells (solvent control). Experiments typically comprise a minimum of four experimental replicates (n=4).

Row | Structure (SMILES) | AC50 | outcome
1 | CC(=O)Nc1ccc(O)cc1 | inconclusive: 1.11e-05 µM | 
2 | CCCC(CCC)C(=O)O |  | inactive
3 | Nc1nc2ncc(CNc3ccc(C(=O)N[C@@H](CCC(=O)O)C(=O)O)cc3)nc2c(=O)[nH]1 | inconclusive: 0.8 µM | 
4 | Nc1cccc2c1C(=O)N(C1CCC(=O)NC1=O)C2=O (configuration not stated) | inconclusive: 100 µM | 
5 | CCN(CC)CCNC(=O)c1c(C)[nH]c(/C=C2\C(=O)Nc3ccc(F)cc32)c1C | active: 1.14 µM | 
6 | O=C1CCC(N2C(=O)c3ccccc3C2=O)C(=O)N1 (configuration not stated) |  | inactive
7 | CC1(C)S[C@@H]2[C@H](NC(=O)Cc3ccccc3)C(=O)N2[C@H]1C(=O)O | inconclusive: 100 µM | 
